# Source: PubChem BioAssay (Tox21)
# Protein sequences, listed by entry. Tags and fused reporters are not part of them. Lines headed by an entry give the natural chain unless they say otherwise; changes in a name come on top.
# UniProt P28223, whole entry, looked up: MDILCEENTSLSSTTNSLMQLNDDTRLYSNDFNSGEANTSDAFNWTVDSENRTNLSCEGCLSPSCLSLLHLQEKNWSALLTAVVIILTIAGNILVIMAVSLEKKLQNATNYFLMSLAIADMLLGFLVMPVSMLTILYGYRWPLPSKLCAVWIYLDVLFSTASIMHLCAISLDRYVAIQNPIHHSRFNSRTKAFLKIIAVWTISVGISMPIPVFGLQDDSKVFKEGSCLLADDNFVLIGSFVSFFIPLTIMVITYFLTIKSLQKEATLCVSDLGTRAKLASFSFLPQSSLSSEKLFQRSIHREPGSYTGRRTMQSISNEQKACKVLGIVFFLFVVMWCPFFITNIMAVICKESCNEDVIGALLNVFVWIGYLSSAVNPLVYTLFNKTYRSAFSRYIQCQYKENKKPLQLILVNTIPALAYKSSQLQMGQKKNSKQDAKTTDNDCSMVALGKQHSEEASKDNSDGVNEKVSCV
# UniProt P11229: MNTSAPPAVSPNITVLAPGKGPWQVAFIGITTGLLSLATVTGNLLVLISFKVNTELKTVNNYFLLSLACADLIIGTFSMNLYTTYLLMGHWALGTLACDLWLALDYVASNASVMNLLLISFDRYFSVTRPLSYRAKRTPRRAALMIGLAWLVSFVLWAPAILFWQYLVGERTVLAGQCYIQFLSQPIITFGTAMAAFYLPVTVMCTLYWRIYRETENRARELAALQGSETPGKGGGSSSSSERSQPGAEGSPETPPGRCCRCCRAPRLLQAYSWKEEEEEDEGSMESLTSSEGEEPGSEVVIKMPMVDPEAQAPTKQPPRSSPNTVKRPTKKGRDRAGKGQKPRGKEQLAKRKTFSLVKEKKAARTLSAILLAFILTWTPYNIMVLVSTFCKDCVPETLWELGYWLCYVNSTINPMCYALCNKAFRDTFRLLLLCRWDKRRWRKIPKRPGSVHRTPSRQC
# UniProt P14416, whole entry, looked up: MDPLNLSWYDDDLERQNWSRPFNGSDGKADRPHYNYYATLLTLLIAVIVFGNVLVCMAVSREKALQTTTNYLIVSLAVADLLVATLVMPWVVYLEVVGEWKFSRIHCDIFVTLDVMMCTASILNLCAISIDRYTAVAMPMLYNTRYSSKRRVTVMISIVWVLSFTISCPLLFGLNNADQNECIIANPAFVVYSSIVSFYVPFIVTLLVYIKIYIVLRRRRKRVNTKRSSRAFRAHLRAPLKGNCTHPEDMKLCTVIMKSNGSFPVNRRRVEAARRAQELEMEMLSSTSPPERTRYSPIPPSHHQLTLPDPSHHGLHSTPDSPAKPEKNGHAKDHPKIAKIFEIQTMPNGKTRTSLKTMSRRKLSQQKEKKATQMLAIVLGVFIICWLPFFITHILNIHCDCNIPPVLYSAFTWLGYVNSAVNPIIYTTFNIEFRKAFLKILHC
# This list was built around the results that the source calls inconclusive (neither active nor inactive); the mix of calls is not that of the screen. For some assays here: A potency beside an inconclusive call is a rough fit, not a confirmed value. The source made the active and inactive calls. Unless noted, calls follow the shape of the full dose curve.
# Key:
# [1] = p53 small molecule agonists, cell-based qHTS assay: qHTS cell viability counter screen (AID 1963581); also: nearly all actives have a fitted effect of over 45% in size; also: potency is read from the fitted curve at half-maximal effect
# Summary of the method: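 Cytotoxicity read-out: ATP-based luminescence (CellTiter-Glo, 30 min RT) measured in the same wells as the p53 reporter assay, HCT-116 p53RE-bla cells, 16 h compound exposure at 37 C.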
# [2] = target: 5-hydroxytryptamine receptor 2A (Homo sapiens) (UniProt P28223); experiment: 5-hydroxytryptamine receptor 2A (HTR2A) small molecule antagonists, cell-based qHTS assay (AID 1963586); also: nearly all actives have a fitted effect of over 45% in size; also: potency is read from the fitted curve at half-maximal effect
# Summary of the method: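 CHO cells stably expressing human HTR2A were plated for 18 h at 37 C, then loaded with calcium dye for 1 h. Compounds were preincubated 5 min at room temperature before DOI (4 nM solution) was added. Kinetic fluorescence was read for 3 min.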
# [3] = target: Muscarinic acetylcholine receptor M1 (Homo sapiens) (UniProt P11229); experiment: Cholinergic receptor muscarinic 1 (CHRM1) small molecule agonists, cell-based qHTS assay (AID 1963589); also: % is scaled to controls: 0 for no effect and ±100 for the full control effect; nearly all actives have a fitted effect of over 35% in size
# Summary of the method: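 Calcium flux read-out: kinetic fluorescence at 1 sec intervals after pin-tool compound addition to dye-loaded CHRM1-CHO cells (human M1). Agonist mode; 15 concentrations tested in triplicate independent runs.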
# [4] = target: Beta-2 adrenergic receptor (Homo sapiens) (UniProt P07550); experiment: Adrenergic beta2 receptor (ADRB2) small molecule agonists, cell-based qHTS assay (AID 1963593); conditions: CHO-ADRB2 cells, cAMP HTRF, 30 min; activation: at 92.4 µM (top of the series) unless noted; also: potency is read from the fitted curve at half-maximal effect;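 as to activation: CHO cells stably overexpressing human ADRB2; % is scaled to controls: 0 for no effect and ±100 for the full control effect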
# Summary of the method: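 CHO cells stably over-expressing ADRB2 were plated overnight at 37C, then dosed with compounds plus a stimulation mix containing 100uM IBMX and 25uM Ro-20-1724 for 0.5hr at room temperature. cAMP was measured by HTRF competition, 1hr.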
# [5] = target: D(2) dopamine receptor (Homo sapiens) (UniProt P14416); experiment: Dopamine D2 receptor (DRD2) small molecule agonists, cell-based qHTS assay (AID 1963594); conditions: HEK293-DRD2 cAMP HTRF, agonist mode, 30 min; activation: at 92.4 µM (top of the series) unless noted; also: nearly all actives have a fitted effect of over 35% in size; also: potency is read from the fitted curve at half-maximal effect; as to activation: % is scaled to controls: 0 for no effect and ±100 for the full control effect
# Summary of the method: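 HEK293 cells stably expressing DRD2 were cultured 24 h at 37 C, then given Ro20-1724 (0.1 mM final) and compounds for 10 min at room temperature. NKH477 (200nM) was then added for 30 min. cAMP was read by HTRF.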
# [6] = target: Beta-2 adrenergic receptor (Homo sapiens) (UniProt P07550); experiment: Adrenergic beta2 receptor (ADRB2) small molecule antagonists, cell-based qHTS assay (AID 1963592); conditions: CHO-ADRB2 cells, isoproterenol-stimulated cAMP HTRF ratio, 0.5 h; activity change, negative = inhibition: at 92.4 µM (top of the series) unless noted; also: potency is read from the fitted curve at half-maximal effect; nearly all actives have a fitted effect of over 50% in size
# Summary of the method: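 Assay format: CHO-ADRB2 cells, 18-20hr seeding at 37C/5% CO2, then compound plus 1nM isoproterenol agonist mix for 0.5hr RT. Homogeneous time-resolved fluorescence cAMP detection after 1hr, expressed as 665/615 nm ratio.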
# [7] = target: D(2) dopamine receptor (Homo sapiens) (UniProt P14416); experiment: Dopamine D2 receptor (DRD2) small molecule antagonists, cell-based qHTS assay (AID 1963595; active = well fitted inhibition curve with a large enough effect in the signal ratio in the repeat runs, with a control signal flat; inconclusive = weak or mixed curves, or effect the other way; the % refers to the signal ratio; also: % is scaled to controls: 0 for no effect and ±100 for the full control effect); conditions: HEK293-DRD2 cAMP HTRF antagonist mode; activity change, negative = inhibition: at 92.4 µM (top of the series) unless noted
# Summary of the method: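 HTRF cAMP read-out at 665 and 620 nm emission (340 nm excitation). Antagonist mode: compounds were tested against 12 nM quinpirole in DRD2-HEK293 cells, with 200 nM NKH477 raising cAMP and 0.1 mM Ro20-1724 blocking its breakdown.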
# [8] = target: Muscarinic acetylcholine receptor M1 (Homo sapiens) (UniProt P11229); experiment: Cholinergic receptor muscarinic 1 (CHRM1) small molecule antagonists, cell-based qHTS assay (AID 1963588); also: potency is read from the fitted curve at half-maximal effect; nearly all actives have a fitted effect of over 40% in size
# Summary of the method: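 Compounds were tested at 15 concentrations in three independent runs. Dye-loaded CHRM1-CHO cells were exposed 5 min at room temperature before stimulation by acetylcholine added at 50nM. Intracellular calcium was read kinetically on FDSS for 3 min.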
# [9] = cAMP Responsive Elements (CRE) small molecule antagonists, cell-based qHTS assay (AID 1963591; active = well fitted inhibition curve with a large enough effect in the signal ratio in the repeat runs, not every such curve was filed as active; inconclusive = weak or mixed curves, or effect the other way; the % refers to the signal ratio; also: potency is read from the fitted curve at half-maximal effect; as to activity change, negative = inhibition: % is scaled to controls: 0 for no effect and ±100 for the full control effect); conditions: CRE-bla HEK293T, beta-lactamase FRET ratio; activity change, negative = inhibition: at 92.4 µM (top of the series) unless noted
# Summary of the method: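 HEK293T CRE-bla; 18 h preincubation; compound pin-transfer; NKH477 0.25 uM final, 3 h, 37 C; LiveBLAzer FRET substrate 2 h RT.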
# [10] = target: 5-hydroxytryptamine receptor 2A (Homo sapiens) (UniProt P28223); experiment: 5-hydroxytryptamine receptor 2A (HTR2A) small molecule agonists, cell-based qHTS assay (AID 1963587); also: potency is read from the fitted curve at half-maximal effect; nearly all actives have a fitted effect of over 30% in size
# Summary of the method: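 HTR2A-CHO cells, plated 18 h at 37 C/5% CO2, dye-loaded 1 h at 37 C; compounds in DMSO added by pin tool (agonist mode). Intracellular calcium flux read as kinetic fluorescence on FDSS over 2 min at 1 s intervals.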
# [11] = cAMP Responsive Elements (CRE) small molecule agonists, cell-based qHTS assay (AID 1963590); conditions: CRE-bla HEK293T, beta-lactamase FRET ratio, 3 h; activation: at 92.4 µM (top of the series) unless noted; also: potency is read from the fitted curve at half-maximal effect
# Summary of the method: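 Beta-lactamase reporter readout: LiveBLAzer B/G FRET substrate, 2 h at room temperature, added after 3 h compound treatment of CRE-bla HEK 293T cells at 37 C/5% CO2.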
structure (smiles),measurement,setting,value
CC(COc1ccccc1)NC(C)C(O)c1ccc(O)cc1 (stereo not drawn),Potency,[1],"inconclusive: 3.54 µM [rising, full curve, poor fit]"
same,Potency,[2],"inconclusive: 1.16 µM [inhibitor, full curve, poor fit]"
same,Potency,[3],inactive
same,activation,[4],inconclusive: 24.1% [at 42.5 µM]
same,Potency,[5],inconclusive: 1.99 µM
CN1CCC(OC(c2ccccc2)c2ccccc2)CC1,Potency,[1],"inconclusive: 7.07 µM [rising, partial curve]"
same,Potency,[2],"inconclusive: 1.03 µM [inhibitor, full curve, poor fit]"
same,Potency,[6],"inconclusive: 29.8 µM [inhibitor, partial curve, poor fit]"
same,Potency,[4],inactive
same,"activity change, negative = inhibition",[7],inconclusive: -26.3% [at 42.5 µM]
CN(C)CC[C@@H](c1ccc(Br)cc1)c1ccccn1,Potency,[1],"inconclusive: 8.9 µM [rising, full curve]"
same,Potency,[2],"inconclusive: 20.5 µM [inhibitor, single point]"
same,Potency,[8],"inconclusive: 6.5 µM [inhibitor, full curve, poor fit]"
same,Potency,[4],inactive
same,Potency,[5],inactive
O=C1Nc2cc(Cl)ccc2Oc2ccccc21,Potency,[1],"inconclusive: 0.126 µM [rising, full curve, poor fit]"
same,Potency,[2],"inconclusive: 2.9 µM [inhibitor, full curve, poor fit]"
same,"activity change, negative = inhibition",[9],inconclusive: 18.5% [at 42.4 µM]
same,activation,[4],inconclusive: -1.53% [at 42.5 µM]
same,Potency,[5],inactive
CCCCCCCCCCCCCCCCOS(=O)(=O)O,Potency,[1],inactive
same,Potency,[2],"inconclusive: 16.3 µM [inhibitor, single point]"
same,Potency,[10],"inconclusive: 26.8 µM [activator, single point]"
same,Potency,[4],"inconclusive: 7.5 µM [inhibitor, single point]"
C[Si](O[Si](C)(C)C)O[Si](C)(C)C,Potency,[1],inactive
same,Potency,[2],"inconclusive: 29.8 µM [inhibitor, partial curve, poor fit]"
same,Potency,[4],inactive
C[C@@H](O[C@H]1OCCN(Cc2n[nH]c(=O)[nH]2)[C@H]1c1ccc(F)cc1)c1cc(C(F)(F)F)cc(C(F)(F)F)c1,Potency,[1],"inconclusive: 25.1 µM [cytotoxic, single point]"
same,Potency,[2],"inconclusive: 20.5 µM [inhibitor, single point]"
same,Potency,[11],"inconclusive: 26.6 µM [rising, partial curve]"
same,Potency,[9],"inconclusive: 26.6 µM [rising, partial curve, poor fit]"
same,activation,[4],inconclusive: -23% [at 42.5 µM]
N[C@H]1CN(c2c(F)cc3c(=O)c(C(=O)O)cn(C4C[C@H]4F)c3c2Cl)CC12CC2 (stereo partly drawn),Potency,[1],"inconclusive: 1.26 µM [cytotoxic, single point]"
same,Potency,[2],inactive
same,Potency,[11],"inconclusive: 15 µM [rising, partial curve]"
same,Potency,[9],"inconclusive: 29.8 µM [activator, partial curve, poor fit]"
same,Potency,[6],"inconclusive: 2.11 µM [falling, full curve, poor fit]"
same,Potency,[4],inconclusive: 3.35 µM

# 10 successive entries already listed:
structure (smiles),measurement,setting,value
CN1CCC(OC(c2ccccc2)c2ccccc2)CC1,Potency,[2],"inconclusive: 1.03 µM [inhibitor, full curve, poor fit]"
same,Potency,[6],"inconclusive: 29.8 µM [inhibitor, partial curve, poor fit]"
same,Potency,[4],inactive
same,"activity change, negative = inhibition",[7],inconclusive: -26.3% [at 42.5 µM]
CN(C)CC[C@@H](c1ccc(Br)cc1)c1ccccn1,Potency,[1],"inconclusive: 8.9 µM [rising, full curve]"
same,Potency,[2],"inconclusive: 20.5 µM [inhibitor, single point]"
same,Potency,[8],"inconclusive: 6.5 µM [inhibitor, full curve, poor fit]"
same,Potency,[4],inactive
same,Potency,[5],inactive
O=C1Nc2cc(Cl)ccc2Oc2ccccc21,Potency,[1],"inconclusive: 0.126 µM [rising, full curve, poor fit]"
